# Laboratory results taken from article doi:10.1101/2025.09.30.679455.
# Chains of the proteins cited; added tags and fusions are not shown. Residues count along the entry.
# UniProt Q14667, residues 32-2235: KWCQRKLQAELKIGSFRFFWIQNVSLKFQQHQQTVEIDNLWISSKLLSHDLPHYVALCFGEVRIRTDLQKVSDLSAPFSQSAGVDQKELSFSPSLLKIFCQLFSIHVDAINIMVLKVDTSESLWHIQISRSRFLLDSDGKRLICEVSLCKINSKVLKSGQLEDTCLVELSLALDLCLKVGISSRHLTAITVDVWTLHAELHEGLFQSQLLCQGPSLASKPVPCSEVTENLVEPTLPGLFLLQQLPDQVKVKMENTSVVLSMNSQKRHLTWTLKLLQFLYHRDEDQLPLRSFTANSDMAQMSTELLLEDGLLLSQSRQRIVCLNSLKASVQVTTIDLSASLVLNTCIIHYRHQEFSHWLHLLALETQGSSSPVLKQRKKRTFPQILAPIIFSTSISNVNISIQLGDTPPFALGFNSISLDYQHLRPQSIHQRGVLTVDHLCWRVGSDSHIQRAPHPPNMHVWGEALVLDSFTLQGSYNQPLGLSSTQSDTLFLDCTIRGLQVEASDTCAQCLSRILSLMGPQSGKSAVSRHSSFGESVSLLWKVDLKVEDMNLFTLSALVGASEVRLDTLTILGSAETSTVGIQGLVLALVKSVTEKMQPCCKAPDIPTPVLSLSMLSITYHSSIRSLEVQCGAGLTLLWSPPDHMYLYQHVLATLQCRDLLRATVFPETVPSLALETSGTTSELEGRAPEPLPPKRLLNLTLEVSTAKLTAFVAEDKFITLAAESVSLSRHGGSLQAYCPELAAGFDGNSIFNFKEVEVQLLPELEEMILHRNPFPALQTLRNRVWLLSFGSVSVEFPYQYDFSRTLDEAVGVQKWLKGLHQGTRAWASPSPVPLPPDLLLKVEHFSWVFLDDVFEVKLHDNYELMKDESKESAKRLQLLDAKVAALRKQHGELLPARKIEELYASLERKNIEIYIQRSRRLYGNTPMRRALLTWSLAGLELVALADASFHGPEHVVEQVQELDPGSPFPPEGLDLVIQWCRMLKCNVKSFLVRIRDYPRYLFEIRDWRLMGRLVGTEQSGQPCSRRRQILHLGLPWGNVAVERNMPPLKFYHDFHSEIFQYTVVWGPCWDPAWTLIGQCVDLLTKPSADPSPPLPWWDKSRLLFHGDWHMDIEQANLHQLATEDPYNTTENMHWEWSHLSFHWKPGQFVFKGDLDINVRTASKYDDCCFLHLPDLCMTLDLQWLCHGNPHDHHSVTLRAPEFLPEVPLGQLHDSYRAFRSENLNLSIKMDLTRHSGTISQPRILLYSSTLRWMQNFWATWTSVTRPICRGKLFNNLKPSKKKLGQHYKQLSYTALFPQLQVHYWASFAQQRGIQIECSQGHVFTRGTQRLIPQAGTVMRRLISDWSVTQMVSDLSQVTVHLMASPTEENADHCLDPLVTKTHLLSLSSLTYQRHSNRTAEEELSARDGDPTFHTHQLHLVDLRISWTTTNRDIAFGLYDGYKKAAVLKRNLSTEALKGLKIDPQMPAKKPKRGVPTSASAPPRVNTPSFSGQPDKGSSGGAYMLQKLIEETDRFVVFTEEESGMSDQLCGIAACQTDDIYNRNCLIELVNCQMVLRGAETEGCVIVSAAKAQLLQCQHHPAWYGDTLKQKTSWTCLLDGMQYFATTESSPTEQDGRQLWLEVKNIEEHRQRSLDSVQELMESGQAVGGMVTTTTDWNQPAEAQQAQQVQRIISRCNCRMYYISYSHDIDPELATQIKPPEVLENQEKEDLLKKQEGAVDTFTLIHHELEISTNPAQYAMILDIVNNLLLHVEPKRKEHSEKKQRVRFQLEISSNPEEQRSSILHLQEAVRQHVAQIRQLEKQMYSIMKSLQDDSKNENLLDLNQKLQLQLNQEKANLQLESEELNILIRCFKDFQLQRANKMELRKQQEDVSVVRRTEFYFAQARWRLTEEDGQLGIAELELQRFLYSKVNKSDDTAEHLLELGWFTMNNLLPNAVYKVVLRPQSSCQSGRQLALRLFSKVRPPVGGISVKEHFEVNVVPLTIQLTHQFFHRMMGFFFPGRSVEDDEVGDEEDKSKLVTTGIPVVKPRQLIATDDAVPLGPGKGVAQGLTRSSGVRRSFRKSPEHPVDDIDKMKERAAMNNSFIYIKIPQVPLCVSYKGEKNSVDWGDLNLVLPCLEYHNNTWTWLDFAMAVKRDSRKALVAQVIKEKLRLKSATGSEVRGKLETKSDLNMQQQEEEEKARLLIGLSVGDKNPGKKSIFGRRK
# UniProt Q14318: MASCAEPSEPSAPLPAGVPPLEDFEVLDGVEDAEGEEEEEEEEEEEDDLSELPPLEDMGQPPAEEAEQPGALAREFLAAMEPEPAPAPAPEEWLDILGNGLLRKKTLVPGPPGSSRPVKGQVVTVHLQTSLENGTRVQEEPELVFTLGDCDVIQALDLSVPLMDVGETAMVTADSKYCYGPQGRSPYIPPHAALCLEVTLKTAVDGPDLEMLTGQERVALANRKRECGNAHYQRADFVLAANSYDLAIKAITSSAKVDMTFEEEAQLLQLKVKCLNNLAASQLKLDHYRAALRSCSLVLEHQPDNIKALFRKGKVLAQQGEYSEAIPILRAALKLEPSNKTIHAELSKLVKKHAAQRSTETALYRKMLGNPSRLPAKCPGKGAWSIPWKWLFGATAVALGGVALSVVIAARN
# Results are given in words; binding and its absence hold for the method and conditions named. In cells and extracts the contact can be indirect.
# Key:
# BLTP2 = BLTP2 (UniProt Q14667); test: co-IP
# VPS13D = VPS13D (UniProt Q5THJ4); test: co-IP
substance,measurement,setting,value
endogenous FKBP8 (from UniProt Q14318 1-412),binding,BLTP2,no binding
same,binding,VPS13D,no binding
